Source: PMC9233167
For at least one entry, the source does not settle the construct or the ends of the probe. For some assays here: Negatives hold for the conditions tested. For some assays here: At least one verdict was read from the data and is not stated in words by the source.

Tests used:
[1] = tested on: TmMYB39 (GST-TmMYB39) (Taxus media); assay: EMSA; conditions: EMSA with Beyotime GS009 kit per manufacturer; competitors 20x and 200x; pH and temperature not stated; recombinant protein; label: 5' 6-FAM (labeled probe), unlabeled as cold probe
[2] = tested on: TmMYB39 (GST-TmMYB39) (Taxus media); assay: competition with a labelled probe; conditions: EMSA with Beyotime GS009 kit per manufacturer, competitors 20x and 200x, pH and temperature not stated, recombinant protein

Sequence | binding result [1] | other results
TTTTTTTGTTGGTTAGATTAATTG (double strand) [pGGPPS probe] | binds | 
TGGATCTATCCCGGGTCGTTTGCA (double strand) [T10OH mutant cold probe] |  | binding result ([2]; excess unlabeled mutant vs labeled N5): no binding
TTCACTTTTTGGTTAATTACACCT (double strand) [T13OH probe] | binds | 
TGGATCTATTGGTTGTCGTTTGCA (double strand) [T10OH probe] | binds | 
CTATTTCTGCAGTTATAGTTTTGG (double strand) [pTBT probe] | binds | 
TTTTTTTGTCCCGGGGATTAATTG (double strand) [pGGPPS mutant cold probe] |  | binding result ([2]; excess unlabeled mutant vs labeled N1): no binding
TTCACTTTTCCCGGGATTACACCT (double strand) [T13OH mutant cold probe] |  | binding result ([2]; excess unlabeled mutant vs labeled N3): no binding
CTATTTCTGCCCGGGTAGTTTTGG (double strand) [pTBT mutant cold probe] |  | binding result ([2]; excess unlabeled mutant vs labeled N7): no binding
